Some of these results come from one statement about several compounds together.
What follows are molecules tested on HL-60 cell (assay: Vitamin D3 antagonist effect: suppression of HL-60 cell differentiation induced by 1α,25-dihydroxyvitamin D3 (NBT reduction activity)). Conditions: simultaneous treatment with 1α,25-dihydroxyvitamin D3 (1×10^−8 M); compound 1×10^−9 to 1×10^−6 M; 4 days at 37° C.; read-out: IC50 (nM), suppression of NBT reduction activity induction in HL-60 cell.
Assay type: cell-based
Text: (1) HL-60 cell line which had been purchased from a cell bank (Japanese Cancer Research Resource Bank, Cell No: JCRB0085) was used. The cell line was stored as a frozen storage stock to prevent the change of cell characteristics attributable to successive cultivations. Prior to the initiation of experiments, the cells were defrosted and successive culturing was stared. For the experiments, cells whose successive culturing was from one month to about a half year were used. The successive culturing was carried out by centrifugally collecting cells which were in the state of suspension culture, and diluting the collected cell concentrate with a fresh culture medium at a ratio of about 1/100 (1-2×10^4 cells/ml). As the culture medium, an RPMI-1640 medium containing 10% fetal bovine serum was used.
The cells which were under successive culturing in the above process (1) were centrifugally collected, and they were dispersed in a culture medium at the cell concentration of 2×10^4 cells/ml. The dispersion was seeded into a 24-well culture schale at 1 ml/well. […] As the control, ethanol was added at 1 μl/well. After culturing at 37° C. for 4 days in the presence of 5% CO2, the cells were centrifugally collected.
(3) As the parameter of differentiation inducing effect on HL-60 cells, the induction of nitroblue tetrazonium (henceforth, NBT) reduction activity was used. The NBT reduction activity was determined according to the following procedure. That is, centrifugally collected cells were suspended in a fresh culture medium, and subsequently NBT and 12-O-tetradecanoylphorbol-13-acetate were added in such a manner that their concentrations became 0.1% and 100 ng/ml, respectively. After the mixed suspension was incubated at 37° C. for 25 min, a cytospin specimen was prepared. After air drying, it was stained with Kernechtrot, and the ratio of the positive cells of NBT reduction activity was determined under an optical microscope. Percentage ratios of the positive cell ratio in a simultaneous treatment with 1 α,25-dihydroxyvitamin D3 (1×10^−8 M) and a compound of the present invention at various treating concentrations (1×10^−9 to 1×10^−6 M) to that in a single treatment with 1 α,25-dihydroxyvitamin D3 (1×10^−8 M) were plotted against treating concentrations of the compound of the present invention, and the treating concentration of the compound of the present invention at which the percentage ratio became 50% was determined as IC50 value (nM).
For “20(R)-(2-(tetrahydro-3-vinylidene-2-furanon-5-yl)-1(E),3(E)-butadienyl)-9,10-secopregna-5(Z),7(E), 10(19)-triene-1(S),3(R)-diol [Compound No. 51a]”, the IC50 was 150 to 300 nM. “20(R)-(2-(tetrahydro-3-vinylidene-2-furanon-5-yl)-1(E),3(E)-butadienyl)-9,10-secopregna-5(Z),7(E), 10(19)-triene-1(S),3(R)-diol [Compound No. 51b]” was tested, and the IC50 was 50 to 150 nM. For “20(R)-(2-(tetrahydro-3-vinylidene-2-furanon-5-yl)-1-ethynyl)-9,10-secopreena-5(Z),7(E),10(19)-triene-1(S),3(R)-diol [Compound No. 61]”, the IC50 was 150 to 300 nM. In the case of `C=C1CC(/C=C/[C@@H](C)[C@H]2CC[C@H]3/C(=C/C=C4/C[C@@H](O)C[C@H](O)C4=C)CCC[C@]23C)OC1=O` (stereo partly drawn) [Compound No. 31a, 20(R)-(2-(tetrahydro-3-vinylidene-2-furanon-5-yl)-1(E)-ethenyl)-9,10-secopregna-5(Z), 7(E),10(19)-triene-1(S),3(R)-diol], the IC50 is reported as 50 to 150 nM. `C=C1CC(/C=C/[C@@H](C)[C@H]2CC[C@H]3/C(=C/C=C4/C[C@@H](O)[C@H](C)[C@H](O)C4=C)CCC[C@]23C)OC1=O` (stereo partly drawn) [Compound No. 32b, 2(S)-methyl-20(R)-(2-(tetrahydro-3-vinylidene-2-furanon-5-yl)-1(E)-ethenyl)-9,10-secopregna-5(Z), 7(E), 10(19)-triene-1(S), 3(R)-diol] was tested, and the IC50 was 50 to 150 nM.

From patent US20050101575A1, “Vitamin d3 derivatives and remedies using the same” (priority 2003, published 2005)
